In assay [1] the target is T1, C-terminally Flag-ProtA-tagged Red1 Δ288-345 deletion mutant (S. pombe) (UniProt Q9UTR8).
T1 sequence: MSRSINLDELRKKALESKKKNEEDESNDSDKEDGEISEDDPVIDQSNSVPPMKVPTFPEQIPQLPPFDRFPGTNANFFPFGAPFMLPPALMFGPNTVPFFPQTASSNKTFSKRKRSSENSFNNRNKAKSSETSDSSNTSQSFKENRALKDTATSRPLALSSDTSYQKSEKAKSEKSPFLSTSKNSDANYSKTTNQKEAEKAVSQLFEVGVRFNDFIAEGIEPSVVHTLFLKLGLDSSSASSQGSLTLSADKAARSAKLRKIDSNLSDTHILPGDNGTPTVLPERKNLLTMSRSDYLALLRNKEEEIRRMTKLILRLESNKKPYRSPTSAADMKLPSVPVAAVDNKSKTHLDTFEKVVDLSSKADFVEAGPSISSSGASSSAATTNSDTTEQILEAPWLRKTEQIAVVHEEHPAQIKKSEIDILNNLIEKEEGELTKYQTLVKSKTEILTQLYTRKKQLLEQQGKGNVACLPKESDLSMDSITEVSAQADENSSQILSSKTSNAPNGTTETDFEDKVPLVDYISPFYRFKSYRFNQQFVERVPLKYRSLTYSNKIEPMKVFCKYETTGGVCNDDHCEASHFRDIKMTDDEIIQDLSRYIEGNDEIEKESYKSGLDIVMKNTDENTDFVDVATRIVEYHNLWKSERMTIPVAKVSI
The experiment in a line: affinity purification with mass spectrometry; tandem affinity purification (IgG beads, TEV cleavage with Benzonase, anti-Flag beads, Flag peptide elution) of Red1-FTP from S. pombe extracts; TMT 10plex mass spectrometry of the final eluates.

For assay [2], the target named is T2, C-terminally Flag-ProtA-tagged wild-type Red1 (S. pombe) (UniProt Q9UTR8).
T2 sequence: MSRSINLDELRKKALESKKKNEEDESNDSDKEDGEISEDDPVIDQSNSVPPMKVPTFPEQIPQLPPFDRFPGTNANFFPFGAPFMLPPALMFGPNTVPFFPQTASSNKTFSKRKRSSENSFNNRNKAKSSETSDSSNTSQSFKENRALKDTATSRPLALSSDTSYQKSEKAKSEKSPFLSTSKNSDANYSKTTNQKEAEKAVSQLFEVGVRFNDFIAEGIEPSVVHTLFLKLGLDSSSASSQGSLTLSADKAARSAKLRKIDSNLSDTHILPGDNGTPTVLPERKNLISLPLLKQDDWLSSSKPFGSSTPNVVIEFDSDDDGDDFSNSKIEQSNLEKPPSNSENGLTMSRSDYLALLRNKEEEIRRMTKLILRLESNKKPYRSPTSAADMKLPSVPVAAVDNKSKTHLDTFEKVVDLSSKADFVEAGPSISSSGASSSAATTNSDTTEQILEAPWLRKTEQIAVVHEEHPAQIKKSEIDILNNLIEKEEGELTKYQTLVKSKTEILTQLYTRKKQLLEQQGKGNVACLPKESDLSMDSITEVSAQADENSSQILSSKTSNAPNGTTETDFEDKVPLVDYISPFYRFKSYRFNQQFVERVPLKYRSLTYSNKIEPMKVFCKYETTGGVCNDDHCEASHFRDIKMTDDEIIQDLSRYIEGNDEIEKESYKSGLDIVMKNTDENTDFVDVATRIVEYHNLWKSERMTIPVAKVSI
The assay is described as above.

No constants are given. Whether binding was seen depends on the method and setting. Binding seen in cells or lysates may run through a third protein. These calls come from enrichment with a bait or labelling near it, and not all partners need be listed. For some assays here: No binding means not detected with the bait. Sequences can lack the tags named with a protein.

B1: Pla1 subunit of the MTREC complex, endogenous (enzyme, UniProt Q10295 1-566)
chain: MTTKQWGITPPISTAPATEQENALNTALINELKNQNLFESPAESEKRVKVLDELQQITTEFVKKVSLAKHMNEKMANEAGGKIFTYGSYRLGVYGPGSDIDTLVVVPKHVSRDNFFQDLEPMLREREEVTDLAAVPDAYVPIIKFKFLGISIDLIFARLSVPRVPRDLELSDNNLLKGVEERCVLSLNGTRVTDQILQLVPNRAVFKHALRAIKFWAQRRAIYANVVGFPGGVAWAMMVARICQLYPNAVSSVIVAKFFRILHQWNWPQPILLKPIEDGPLQVRIWNPKLYPSDKAHRMPIITPAYPSMCATHNITLSTQTIILREMVRAGEIADQIMVKALPWSALFQKHDFFHRYKHYLTITAAAKTAEAQLKWAGLVESKLRHLVTRLELVDAIALAHPFNKGFDKVYNCSSEEEAQQVASGVTLEVAYESTDHEKLANDTVNEEKADNTESKADGSENGEKQIFPVYTTTCYIGLELEKKKGHPIKRLDISWPTQEFYELCKKWDKYDDTLMNVFIKNTKNTALPDEVFEPGEERPKATKKRSTADTAHSTEQLKRQKVSTA
With B1, the values for the binding result in assay [1] and in assay [2] were “no binding” and “binds”, respectively.
